Measured values from the supplement of paper PMC5949888.
Most values lie at the floor of the assay. Slopes are relative: functional sequences can read slightly below zero.

Each substance was assayed on Saccharomyces cerevisiae PS128 hsf1 delta, HSF1(1-493) fusion (assay: growth estimate (transactivation domain function in HSF1 fusion, heat-shock survival) (a.u. (slope of normalised read count over time)); higher = stronger growth at 37°C, i.e. more transactivation activity). Conditions: library: random library.
Method: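 Random 60-nt DNA library encoding peptides of up to 20 aa, fused to the C-terminus of yeast HSF1 residues 1-493 (C-terminal TAD deleted) and expressed from the native HSF1 promoter on a CEN plasmid in hsf1-deleted S. cerevisiae PS128. Cells were selected at 37°C on -trp 5-FOA plates for 0, 2, 4, 6 and 8 days and amplicons were sequenced. Growth estimate is the slope of a robust linear fit of total-sum-normalised read counts (normalised to the first time point) over time, using at least 2 replicates. Sequences are classed functional (TAD activity) above a threshold of -0.13, set from stop-codon control sequences.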

Substance	growth estimate
SCRTGNLRQRIYEQCSWTGP	< -0.25
MSRILPLGEVAGV	< -0.25
VSERFYLGTPGRNRIATCAT	< -0.25
RSEEDLRRVISSP	< -0.25
SWAP	< -0.25
KPYVSRLATAANNAGQD	< -0.25
KTCDLGGSYTRSRDGR	< -0.25
TRAMSSTAGSRSEPCRVFPR	< -0.25
LRHGCRAVLA	< -0.25
AETTSLGG	< -0.25
RSDGPGLARAEVLSCECSAP	< -0.25
WLGRRAGSGEVLNGITQLRS	< -0.25
APVK	< -0.25
LPLPACDR	< -0.25
HDGTRHGQQVHAVRHINPPR	< -0.25
SLVNALAPL	< -0.25
PNTRRVWLLVGALSAPYARG	< -0.25
DQWH	< -0.25
LRCSVRGLCNLHLESRISNA	< -0.25
FVNGAVDCDIAQVYIGGVKV	< -0.25
GKKVSATHALATSCTDCTA	< -0.25
AHDSALPELRRLMRIDTARG	< -0.25
PDRYTETRLGGCIPIIENH	< -0.25
ISNLP	-0.173

Substance	growth estimate
AEGAAKPVNSKTNKRWGLVW	< -0.25
TYCLRQMPVFSTDSGSASGC	< -0.25
WEQSGDGMPGPTFILSNGSL	< -0.25
LHVRALILVRGRCPFNYWPS	< -0.25
ESRGDELYQACCRHVVLSLP	< -0.25
HCQGHFDR	< -0.25
RSDFGRSPPQVWPCDPS	< -0.25
NAVTTSL	< -0.25
VSGNRVGICILN	< -0.25
SGGL	< -0.25
RSECGVHQLMGIQVAKAAKA	< -0.25
VGNLRRKALPLASREQPVHL	< -0.25
LDPRSGGEVYGLTQVAWGPP	< -0.25
VAFRG	< -0.25
SYCNAFQ	< -0.25
IGSRKDLYRKPIR	< -0.25
TLAMHARCAKRAGNIVVSAN	< -0.25
SQGLLRFIEREFER	< -0.25
GSIAIRCLTRGSVCQ	< -0.25
RLHGRPIKGAGSD	< -0.25
SRSLD	< -0.25
TPPGLRDRAKRGRDAMPVI	< -0.25
TTST	< -0.25
GVNFC	< -0.25

Substance	growth estimate
GHSISKA	< -0.25
WLKAWSC	-0.239
IEQIGTDPTLLRGQPI	< -0.25
IGGGRASRHNALACGVNDLG	< -0.25
QALKTRIGCAGYTDLV	< -0.25
VEYGCVCGRVNY	< -0.25
ISFYIQNKSGPV	< -0.25
LGMRSYQQFGAWGRGVRRLR	< -0.25
HLFCFQVGQYTTGFRMRDTL	< -0.25
ECHSINRGSVD	< -0.25
MGQRCCYFNTGERGGHALT	< -0.25
PVGAKLELAYPTEMRSALGS	< -0.25
AVRYSVCRFQPGEIKSCEHA	< -0.25
TLICMGYFAAYLPNNQWPRM	< -0.25
SCGTHEP	< -0.25
NGWVVTAAL	< -0.25
PTAV	< -0.25
RVKHLAQYQNIGLFLATVKA	< -0.25
DDAK	< -0.25
HRDVNICRQTWVRNMCGLRP	< -0.25
FKKRPSVY	< -0.25
EYHCVGEP	< -0.25
EQIKTKSCRTEGPVRGLLPE	< -0.25
SHLCK	< -0.25

Substance	growth estimate
SDWATRVP	< -0.25
THGSS	< -0.25
GMR	< -0.25
YHNGRL	< -0.25
GRLVFA	-0.126
RALLDSLTTEPCPSPITQA	< -0.25
GFRLRAWGPYVHRR	< -0.25
LTPA	< -0.25
ATSLSYTVV	-0.0894
QTIYARRGNEYCRVSSRSDI	< -0.25
FGRQMKIVEDWRIHRQSSQQ	-0.246
PSPRVHRNIFSRAPESPTPS	< -0.25
KLHAFQSIAR	-0.245
RPEFRWEGLATLAELLLASV	< -0.25
KQDSTSSVSAKMTAQRCIGL	< -0.25
LGIESNCMVFFLAGVGAEAR	< -0.25
PVGKDSDPPGAADLRHNGSY	< -0.25
EDITDAGVSL	< -0.25
VRATRV	< -0.25
WGSILRRSY	< -0.25
VLVG	< -0.25
FRPTLVALATSVCCPKHIST	< -0.25
TVIAGSAKSTGAR	< -0.25
SGGHALAGQSFPVAGL	< -0.25

Substance	growth estimate
PTQRGFSSQG	< -0.25
YFIGSLSHAGETKRNPLAPP	< -0.25
SVPSLAGRTIQAAFIRRSGQ	< -0.25
HPMRAR	< -0.25
PDGKGC	< -0.25
RKSWGA	< -0.25
QREHKCAD	< -0.25
GVSRPLLSASSRLTTVLADC	< -0.25
GCSMSVQFNTLYVDQQLNLG	< -0.25
SGTRGMLRFFRDKRSSEIIV	< -0.25
YTSDLRRAVG	< -0.25
AGQQIYSGSYLVVTRVPSSV	< -0.25
VCR	< -0.25
SIRGRQCSESPYHVFVMLSQ	< -0.25
WYVRSDMVQSDQTHGTVDFN	< -0.25
TPPWWRVV	< -0.25
GTGGRVDTRSPHTWACRYLV	< -0.25
GSRSWRYPFPFSGTRHEWYT	< -0.25
DIRPAGSHRSKSSRGASPLY	< -0.25
LDVSRTL	< -0.25
IYVALQGPRLSSGSFKSCYE	< -0.25
FIVLRPRADLDTAVYRRVWN	< -0.25
RHHQGSYSGILVFGSRLQGE	< -0.25
ELSVQAQRPAFDSSSGVTFA	< -0.25

Substance	growth estimate
AGVFVQNIGNMMNIPCLSQA	< -0.25
LTAFSGVQDQNFRDLSKNP	< -0.25
ALFCTGTSRSLAGT	< -0.25
TGSWIAHESLFWNDSSKEGC	< -0.25
PQWLSVPC	< -0.25
ARNNVFRQGTWCSAPCDTGR	< -0.25
LRQLQFSGLYVFKEPAPTRD	< -0.25
ATIPDRLR	-0.243
RTQRVPEAFEGGAYCVPRAY	< -0.25
GQFDELAIHSVT	< -0.25
VLLKHI	< -0.25
YLSHKSKLVSEFLVDNNLYI	< -0.25
MVRSLSFTIG	< -0.25
SHRHYLGFT	< -0.25
RGASRGEQCGTLAGIPRYRV	< -0.25
PSVSCQSALTIKISS	< -0.25
CSLIKIVMSTASTGGKGRDG	< -0.25
VGSIGLLLSSQMLVG	< -0.25
IARCRWTNCRIESRNYMFQD	< -0.25
MVAKPLQVNKSRNSMEGSYA	< -0.25
GLCANLDDCVGAFVFWWR	< -0.25
IGFVEGCQELHNLNALVLTW	< -0.25
ISKLAGLVATVCGYVLQLPV	< -0.25
RRFHATSFSVCPGPSDTHVS	< -0.25

Substance	growth estimate
RITHSSAIWSCQAPGPWTSR	< -0.25
PKMPKQEPGPAMRPTS	< -0.25
SQIWGLDSRVRSSFRRRALV	< -0.25
RTGIARTAMRAGVRRRRHTG	< -0.25
GKRVFSREIIFSTLMPPYVG	< -0.25
KAIRSPQRPVSCRK	< -0.25
AAAVDSEQL	< -0.25
VYLESRYSLSLCLSCSRPDR	< -0.25
DRWGDSPIRCPMEIAIDPGK	< -0.25
STRSFTHFWS	< -0.25
VYWT	< -0.25
SVWGFFAWGGTRFKPDVCSY	0.221
GIHKEGQVYCGGRDRRLVVS	< -0.25
LCVARRSILRSEAVS	< -0.25
VALAQGARTGEWTTGVTSRC	< -0.25
GIMVPASSSER	< -0.25
IRTQRRGPHLKSTSL	< -0.25
LGILRILRFADTNFRDCALR	< -0.25
HHRIRWSSVLWSSLEKGGCT	< -0.25
HTTCSRARYGSAHTAIVA	< -0.25
YGVESV	< -0.25
NMGLMERPALADNGTRG	< -0.25
IQNASITLLLY	< -0.25
DVSRSKIAPLADICSRGSWL	< -0.25

35 entries from above, bar-delimited.
Substance | growth estimate
VLLKHI | < -0.25
YLSHKSKLVSEFLVDNNLYI | < -0.25
MVRSLSFTIG | < -0.25
SHRHYLGFT | < -0.25
RGASRGEQCGTLAGIPRYRV | < -0.25
PSVSCQSALTIKISS | < -0.25
CSLIKIVMSTASTGGKGRDG | < -0.25
VGSIGLLLSSQMLVG | < -0.25
IARCRWTNCRIESRNYMFQD | < -0.25
MVAKPLQVNKSRNSMEGSYA | < -0.25
GLCANLDDCVGAFVFWWR | < -0.25
IGFVEGCQELHNLNALVLTW | < -0.25
ISKLAGLVATVCGYVLQLPV | < -0.25
RRFHATSFSVCPGPSDTHVS | < -0.25
RITHSSAIWSCQAPGPWTSR | < -0.25
PKMPKQEPGPAMRPTS | < -0.25
SQIWGLDSRVRSSFRRRALV | < -0.25
RTGIARTAMRAGVRRRRHTG | < -0.25
GKRVFSREIIFSTLMPPYVG | < -0.25
KAIRSPQRPVSCRK | < -0.25
AAAVDSEQL | < -0.25
VYLESRYSLSLCLSCSRPDR | < -0.25
DRWGDSPIRCPMEIAIDPGK | < -0.25
STRSFTHFWS | < -0.25
VYWT | < -0.25
SVWGFFAWGGTRFKPDVCSY | 0.221
GIHKEGQVYCGGRDRRLVVS | < -0.25
LCVARRSILRSEAVS | < -0.25
VALAQGARTGEWTTGVTSRC | < -0.25
GIMVPASSSER | < -0.25
IRTQRRGPHLKSTSL | < -0.25
LGILRILRFADTNFRDCALR | < -0.25
HHRIRWSSVLWSSLEKGGCT | < -0.25
HTTCSRARYGSAHTAIVA | < -0.25
YGVESV | < -0.25

Next part.

Substance	growth estimate
QEDARSGEVRSGRWMESLLP	< -0.25
YGITDADARRSHASIRPHSR	< -0.25
RPRCQGP	< -0.25
RGTG	< -0.25
FRQA	< -0.25
DYPATAPLANQ	< -0.25
KYCIVYSGRDSSSPFRLGET	< -0.25
RTLSCRGSRQSTSMTSGAAR	< -0.25
TEGV	< -0.25
LTSLSPCPWRLVCLPGWGRQ	< -0.25
KVYPNGWRFPGENRRHGRRP	< -0.25
MLRLVLDLGRLLEAADQDLK	< -0.25
KMVCFA	< -0.25
FENKLFL	< -0.25
QVRCQDNN	< -0.25
QVLVDQEGGRNGSVLVLSSR	< -0.25
RAIFVITQGRV	< -0.25
SGGAKPGPLPE	< -0.25
VLGLMGVIQSI	< -0.25
SGHPREWRL	< -0.25
DSTVIVEEGLGG	< -0.25
GHQIRGRGYCS	< -0.25
MFLLVGLGRVVGWALAVLSA	< -0.25
LTFQSSWDTPLARDADPRQS	< -0.25
